The other results are listed elsewhere or left out. Many values rest on one well or one pass, so single values are uncertain.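 The apoptosis fraction was the count of cleaved-PARP antibody-stained nuclei relative to all DNA-stained nuclei, imaged in 1,536-well plates. Screening doses were set so most cells survived, and baseline and induced cleaved-PARP levels vary greatly across cell lines.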
Tests used:
Test in all cases: cleaved PARP positive nuclei fraction relative to DMSO control; melanoma cells; higher = more apoptosis
Settings in all cases: library dose: low library concentration; 72 h
501Mel = system: 501Mel
A101D = system: A101D
A2058 = system: A2058
A375 = system: A375
C32 = system: C32
CBRC008 = system: CBRC008 (line from a melanoma biopsy)
CBRC013 = system: CBRC013 (line from a melanoma biopsy)
CBRC014 = system: CBRC014 (line from a melanoma biopsy)
CBRC016 = system: CBRC016 (line from a melanoma biopsy)
CBRC017 = system: CBRC017 (line from a melanoma biopsy)
COLO792 = system: COLO792
COLO800 = system: COLO800
COLO829 = system: COLO829
G361 = system: G361
IPC-298 = system: IPC-298
IST-MEL1 = system: IST-MEL1
LB2518-MEL = system: LB2518-MEL
LOXIMVI = system: LOXIMVI
MEL-HO = system: MEL-HO

SMILES | cleaved PARP positive nuclei fraction (501Mel) [%] | cleaved PARP positive nuclei fraction (A101D) [%] | cleaved PARP positive nuclei fraction (A2058) [%] | cleaved PARP positive nuclei fraction (A375) [%] | cleaved PARP positive nuclei fraction (C32) [%] | cleaved PARP positive nuclei fraction (CBRC008) [%] | cleaved PARP positive nuclei fraction (CBRC013) [%] | cleaved PARP positive nuclei fraction (CBRC014) [%] | cleaved PARP positive nuclei fraction (CBRC016) [%] | cleaved PARP positive nuclei fraction (CBRC017) [%] | cleaved PARP positive nuclei fraction (COLO792) [%] | cleaved PARP positive nuclei fraction (COLO800) [%] | cleaved PARP positive nuclei fraction (COLO829) [%] | cleaved PARP positive nuclei fraction (G361) [%] | cleaved PARP positive nuclei fraction (IPC-298) [%] | cleaved PARP positive nuclei fraction (IST-MEL1) [%] | cleaved PARP positive nuclei fraction (LB2518-MEL) [%] | cleaved PARP positive nuclei fraction (LOXIMVI) [%] | cleaved PARP positive nuclei fraction (MEL-HO) [%]
CC(C)(C)c1cnc(CSc2cnc(NC(=O)C3CCNCC3)s2)o1 + O=C(O)c1ccc(-c2c[nH]c3ncc(-c4ccccc4)cc23)cc1C1CCCC1 [GSK650394] (first compound 0.01 µM, partner dose 0.16 µM) | 85.1 | 129 | 80.3 | 124 | 108 | 366 | 109 | 77.4 | 86 | 103 | 70.4 | 155 | 126 | 123 | 82.1 | 60.2 | 46.8 | 24.6 | 217
OCc1c[nH]c2ccccc12 [Indole-3-carbinol] + C=CCn1c(=O)c2cnc(Nc3ccc(N4CCN(C)CC4)cc3)nc2n1-c1cccc(C(C)(C)O)n1 [MK1775] (first compound 0.8 µM, partner dose 0.02 µM) | 85.4 | 55.4 | 84.9 | 177 | 97.8 | 87.5 | 65 | 75 | 149 | 71.6 | 46.6 | 130 | 39.6 | 111 | 89.9 | 61.2 | 133 | 119 | 64.5
Cc1nc(Nc2ncc(C(=O)Nc3c(C)cccc3Cl)s2)cc(N2CCN(CCO)CC2)n1 [dasatanib] + C[C@@H]1CCN(C(=O)CC#N)C[C@@H]1N(C)c1ncnc2[nH]ccc12 [CP690550] (first compound 0.004 µM, partner dose 1 µM) | 89.6 | 134 | 206 | 169 | 141 | 76.9 | 77.4 | 107 | 178 | 94.6 | 179 | 148 | 139 | 65.4 | 85.8 | 215 | 101 | 236 | 136
COc1cc(Nc2ncc(F)c(Nc3ccc4c(n3)NC(=O)C(C)(C)O4)n2)cc(OC)c1OC [Tamatinib] + C=CCn1c(=O)c2cnc(Nc3ccc(N4CCN(C)CC4)cc3)nc2n1-c1cccc(C(C)(C)O)n1 [MK1775] (first compound 0.4 µM, partner dose 0.02 µM) | 126 | 106 | 126 | 48.9 | 98.7 | 168 | 73.5 | 102 | 46.9 | 112 | 193 | 92.8 | 131 | 115 | 72.7 | 248 | 231 | 140 | 35.3
COc1cc(Nc2ncc(F)c(Nc3ccc4c(n3)NC(=O)C(C)(C)O4)n2)cc(OC)c1OC [Tamatinib] + CO[C@@H]1[C@H](N(C)C(=O)c2ccccc2)C[C@H]2O[C@]1(C)n1c3ccccc3c3c4c(c5c6ccccc6n2c5c31)C(=O)NC4 [Midostaurin] (first compound 0.4 µM, partner dose 0.08 µM) | 194 | 122 | 313 | 246 | 186 | 58.6 | 128 | 89.8 | 159 | 118 | 144 | 135 | 137 | 148 | 126 | 108 | 352 | 176 | 90.9
CC(=O)c1c(C)c2cnc(Nc3ccc(N4CCNCC4)cn3)nc2n(C2CCCC2)c1=O [palbociclib] + CN(C)S(=O)(=O)c1ccc2c(c1)/C(=C/c1cc3c([nH]1)CCCC3)C(=O)N2 [SU6656] (first compound 0.04 µM, partner dose 0.4 µM) | 204 | 313 | 121 | 87.7 | 122 | 135 | 91 | 134 | 99.1 | 112 | 172 | 129 | 186 | 101 | 168 | 115 | 113 | 53.1 | 265
CC1(C)NC(=O)N(c2ccc([N+](=O)[O-])c(C(F)(F)F)c2)C1=O [nilutamide] + CN(C)S(=O)(=O)c1ccc2c(c1)/C(=C/c1cc3c([nH]1)CCCC3)C(=O)N2 [SU6656] (first compound 1 µM, partner dose 0.4 µM) | 72.4 | 107 | 170 | 66.8 | 78.4 | 211 | 78.3 | 85.3 | 130 | 215 | 65.6 | 85.1 | 96.4 | 131 | 118 | 47.9 | 47.5 | 27.6 | 32.8
Cc1ccc(NC(=O)c2cccc(N(C)C)c2)cc1NC(=O)c1ccc(O)cc1 + CO[C@@H]1[C@H](N(C)C(=O)c2ccccc2)C[C@H]2O[C@]1(C)n1c3ccccc3c3c4c(c5c6ccccc6n2c5c31)C(=O)NC4 [Midostaurin] (first compound 2 µM, partner dose 0.08 µM) | 225 | 133 | 114 | 82 | 166 | 111 | 101 | 102 | 169 | 104 | 48 | 94.9 | 90.9 | 59.3 | 123 | 47 | 75.6 | 77.4 | 41.2
CC(C)(C)c1cnc(CSc2cnc(NC(=O)C3CCNCC3)s2)o1 + CN(C)S(=O)(=O)c1ccc2c(c1)/C(=C/c1cc3c([nH]1)CCCC3)C(=O)N2 [SU6656] (first compound 0.01 µM, partner dose 0.4 µM) | 78.3 | 106 | 167 | 317 | 169 | 106 | 94.3 | 106 | 129 | 209 | 279 | 71.3 | 107 | 111 | 367 | 264 | 93 | 95.1 | 134
Clc1ccc(Nc2nnc(Cc3ccncc3)c3ccccc23)cc1 [vatalanib] + C[C@@H]1CCN(C(=O)CC#N)C[C@@H]1N(C)c1ncnc2[nH]ccc12 [CP690550] (first compound 2 µM, partner dose 1 µM) | 184 | 97.7 | 92 | 234 | 79.9 | 130 | 132 | 99.7 | 164 | 92.9 | 132 | 75.5 | 179 | 115 | 24.6 | 152 | 127 | 319 | 122
OCc1c[nH]c2ccccc12 [Indole-3-carbinol] + O=C(O)c1ccc(-c2c[nH]c3ncc(-c4ccccc4)cc23)cc1C1CCCC1 [GSK650394] (first compound 0.8 µM, partner dose 0.16 µM) | 156 | 87 | 119 | 107 | 119 | 121 | 77.1 | 86.1 | 181 | 116 | 142 | 150 | 134 | 142 | 96.1 | 65 | 91.4 | 14.8 | 129
COCC[n+]1c2c(n(Cc3cnccn3)c1C)C(=O)c1ccccc1C2=O + CC(C)(C)c1cnc(CSc2cnc(NC(=O)C3CCNCC3)s2)o1 [SNS-032] (first compound 0.0004 µM, partner dose 0.01 µM) | 340 | 55.5 | 195 | 148 | 149 | 707 | 138 | 94 | 81.5 | 99.3 | 219 | 170 | 57 | 123 | 297 | 78.9 | 49.5 | 44.7 | 38.2
C=CCn1c(=O)c2cnc(Nc3ccc(N4CCN(C)CC4)cc3)nc2n1-c1cccc(C(C)(C)O)n1 + NC(=O)Nc1cc(-c2cccc(F)c2)sc1C(=O)N[C@H]1CCCNC1 [AZD7762] (first compound 0.02 µM, partner dose 0.02 µM) | 101 | 51.7 | 188 | 2470 | 218 | 105 | 354 | 217 | 209 | 73.1 | 84.8 | 121 | 124 | 93.3 | 87.1 | 380 | 103 | 25.1 | 129
Cn1c(Nc2ccc(C(F)(F)F)cc2)nc2cc(Oc3ccnc(-c4ncc(C(F)(F)F)[nH]4)c3)ccc21 + Cc1cc(N2CCOCC2)cc2[nH]c(-c3c(NC[C@@H](O)c4cccc(Cl)c4)cc[nH]c3=O)nc12 [BMS536924] (first compound 0.08 µM, partner dose 0.2 µM) | 363 | 125 | 113 | 95.6 | 51.6 | 203 | 72.7 | 117 | 252 | 87.1 | 813 | 149 | 31.9 | 349 | 45.7 | 103 | 211 | 59.1 | 81.6
Cc1nc(Nc2ncc(C(=O)Nc3c(C)cccc3Cl)s2)cc(N2CCN(CCO)CC2)n1 [dasatanib] + O=C(Nc1cccc(Cl)c1)Nc1ncc(CCNc2ncnc3ccsc23)s1 [SNS314] (first compound 0.004 µM, partner dose 0.0008 µM) | 165 | 267 | 143 | 143 | 269 | 118 | 87.4 | 76.2 | 50.9 | 181 | 227 | 110 | 197 | 117 | 549 | 39.8 | 151 | 59.2 | 165
Cn1c(Nc2ccc(C(F)(F)F)cc2)nc2cc(Oc3ccnc(-c4ncc(C(F)(F)F)[nH]4)c3)ccc21 + O=C(O)c1ccc(-c2c[nH]c3ncc(-c4ccccc4)cc23)cc1C1CCCC1 [GSK650394] (first compound 0.08 µM, partner dose 0.16 µM) | 150 | 67.5 | 236 | 297 | 74 | 92.3 | 149 | 116 | 127 | 135 | 571 | 130 | 145 | 156 | 137 | 73.7 | 411 | 90.8 | 504

Retrieved one by one from above (2):
SMILES | cleaved PARP positive nuclei fraction (501Mel) [%] | cleaved PARP positive nuclei fraction (A101D) [%] | cleaved PARP positive nuclei fraction (A2058) [%] | cleaved PARP positive nuclei fraction (A375) [%] | cleaved PARP positive nuclei fraction (C32) [%] | cleaved PARP positive nuclei fraction (CBRC008) [%] | cleaved PARP positive nuclei fraction (CBRC013) [%] | cleaved PARP positive nuclei fraction (CBRC014) [%] | cleaved PARP positive nuclei fraction (CBRC016) [%] | cleaved PARP positive nuclei fraction (CBRC017) [%] | cleaved PARP positive nuclei fraction (COLO792) [%] | cleaved PARP positive nuclei fraction (COLO800) [%] | cleaved PARP positive nuclei fraction (COLO829) [%] | cleaved PARP positive nuclei fraction (G361) [%] | cleaved PARP positive nuclei fraction (IPC-298) [%] | cleaved PARP positive nuclei fraction (IST-MEL1) [%] | cleaved PARP positive nuclei fraction (LB2518-MEL) [%] | cleaved PARP positive nuclei fraction (LOXIMVI) [%] | cleaved PARP positive nuclei fraction (MEL-HO) [%]
C=CCn1c(=O)c2cnc(Nc3ccc(N4CCN(C)CC4)cc3)nc2n1-c1cccc(C(C)(C)O)n1 + NC(=O)Nc1cc(-c2cccc(F)c2)sc1C(=O)N[C@H]1CCCNC1 [AZD7762] (first compound 0.02 µM, partner dose 0.02 µM) | 101 | 51.7 | 188 | 2470 | 218 | 105 | 354 | 217 | 209 | 73.1 | 84.8 | 121 | 124 | 93.3 | 87.1 | 380 | 103 | 25.1 | 129
Clc1ccc(Nc2nnc(Cc3ccncc3)c3ccccc23)cc1 [vatalanib] + C[C@@H]1CCN(C(=O)CC#N)C[C@@H]1N(C)c1ncnc2[nH]ccc12 [CP690550] (first compound 2 µM, partner dose 1 µM) | 184 | 97.7 | 92 | 234 | 79.9 | 130 | 132 | 99.7 | 164 | 92.9 | 132 | 75.5 | 179 | 115 | 24.6 | 152 | 127 | 319 | 122

Reference: the supplement of paper PMC4604168 (melanoma cell lines)
